Experimental data: publication PMC7532997, “Cytotoxic Constituents of the Bark of Hypericum roeperianum towards Multidrug-Resistant Cancer Cells” (Evidence-based Complementary and Alternative Medicine : eCAM, 2020)

System: CEM/ADR5000 leukemia cells (P-gp-overexpressing)
Test: Resazurin reduction assay (RRA), 72 h
Assay type: cell-based
Settings: IC50 CEM/ADR5000 divided by IC50 CCRF-CEM
Source text: Cell lines used in this work included drug-sensitive and drug-resistant phenotypes of earlier reported origin. They were all provided by Prof. Dr. Thomas Efferth from his cell lines collection; they have being used in cytotoxicity screening by our team for a decade. These include two hematological cancer cell lines, namely, the drug-sensitive CCRF-CEM leukemia cell line and its multidrug-resistant P-gp-over-expressing subline CEM/ADR5000 cells and […] carcinoma cell lines, namely, U87.MG glioblastoma cell line and its EGFR-transfected U87.MGΔEGFR subline, HCT116 (p53^+/+) colon cancer cell line and its knockout clone HCT116 (p53^−/^−), and MDA-MB-231-pcDNA3 breast cancer cell line and its BCRP-transfected multidrug-resistant MDA-MB-231-BCRP clone 23 cell line, as well as the normal AML12 hepatocytes, used to compare with HepG2 liver cancer cells.
The RRA was applied to evaluate the cytotoxicity of botanicals, the isolated phytochemicals (1–5, 7, and 8), and doxorubicin on the cell growth as reported earlier. Cells treated with various samples at different concentrations were incubated for 72 h in humidified 5% CO2 atmosphere at 37°C. Cells were further coloured with resazurin and incubated for 1–2 h; the fluorescence was further measured with an Infinite M2000 Pro™ plate reader (Tecan, Crailsheim, Germany) at 544 nm as the excitation wavelength and 590 nm as the emission wavelength. The IC50 values represented the concentrations of the sample required to inhibit 50% of cell proliferation and were calculated from a calibration curve by linear regression using Microsoft Excel 2007 [29].

Compound | Degree of resistance
C[C@H]1C(=O)CC[C@@H]2[C@]1(C)CC[C@H]1[C@@]2(C)CC[C@@]2(C(=O)O)C3CC(C)(C)CC[C@]3(C)CC[C@]12C (stereo partly drawn) [Compound 1, trichadonic acid] | 1.26
COc1cccc2c(=O)c3cc(O)ccc3oc12 [Compound 3, 2-hydroxy-5-methoxyxanthone] | 3.15
O=c1c2cc(O)c(O)cc2oc2cc(O)cc(O)c12 [Compound 4, 1,3,6,7-tetrahydroxyxanthone] | 1.16
O=c1c2ccc(O)c(O)c2oc2cc(O)cc(O)c12 [Compound 5, 1,3,5,6-tetrahydroxyxanthone] | 1.00
COc1cc(C2Oc3ccc4c(=O)c5c(O)cc(O)cc5oc4c3OC2CO)cc(OC)c1O (stereo not drawn) [Compound 7, 3′-hydroxymethyl-2′-(4″-hydroxy-3″,5″-dimethoxyphenyl)-5′,6′:5,6-(6,8-dihydroxyxanthone)-1′,4′-dioxane] | 2.32
COc1cc(C2Oc3ccc4c(=O)c5ccccc5oc4c3OC2CO)cc(OC)c1O (stereo not drawn) [Compound 8, 3′-hydroxymethyl-2′-(4″-hydroxy-3″,5″-dimethoxyphenyl)-5′,6′:5,6-(xanthone)-1′,4′-dioxane] | 2.66
